According to patent US20160298152A1 (CALIFORNIA INSTITUTE OF TECHNOLOGY, published 2016):
Results are given in words; binding and its absence hold for the method and conditions named. In cells and extracts the contact can be indirect. Some binding calls cover weakened binding; strength is not graded here.

Target: T1, TmTrpB (wild-type β-subunit of tryptophan synthase from Thermotoga maritima) (Thermotoga maritima) (UniProt P50909)
T1 sequence: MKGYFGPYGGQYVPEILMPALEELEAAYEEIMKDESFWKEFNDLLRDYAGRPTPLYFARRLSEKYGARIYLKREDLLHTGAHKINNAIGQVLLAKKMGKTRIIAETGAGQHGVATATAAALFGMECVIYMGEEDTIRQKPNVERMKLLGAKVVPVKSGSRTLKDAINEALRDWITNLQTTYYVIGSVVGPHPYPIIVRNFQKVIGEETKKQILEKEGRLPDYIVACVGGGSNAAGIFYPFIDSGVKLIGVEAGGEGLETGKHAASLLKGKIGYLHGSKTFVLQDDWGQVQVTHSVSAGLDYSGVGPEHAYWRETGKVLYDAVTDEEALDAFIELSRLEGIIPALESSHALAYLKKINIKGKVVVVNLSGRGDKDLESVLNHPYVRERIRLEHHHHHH
Assay: co-purification of untagged TmTrpA with TmTrpB on Ni chromatography; analytical size exclusion

B1: TmTrpA (α-subunit of tryptophan synthase from Thermotoga maritima) (enzyme, UniProt P50908 1-239, looked up)
chain: MKGFIAYIPAGFPDLETTRKILIALNELGITGVEIGVPFSDPVADGPVIQLAHSVALRNGVTIKKILEMLSEISVDYDLYLMSYLNPIVNYPEGKEKLLDELKKLGVKGLIIPDLPLREVKNVDIAYPIVPFVAPNTKDEEIDLINSVQAPFVYYISRYGVTGEREDLPFADHIKRVKERIKLPLFVGFGISRHEQVKKVWEIADGVIVGSALVRIMEENPKDEIPRKVVEKVKELLGK
- binding: binds
